# Values of other authors in patent US20240108043A1, “NONNUTRITIVE SWEETENER COMPOSITIONS, METHODS OF MANUFACTURE AND USES THEREOF” (priority 2022, published 2024).
# Settings: peer-reviewed trials
row,SMILES,Calorie content
1,"O=C(CO)[C@H](O)[C@H](O)[C@H](O)CO [allulose, D-ribo-2-hexulose]",0.1 kcal/g
2,"OC[C@@H](O)[C@@H](O)CO [erythritol, (2R,3S)-Butan-1,2,3,4-tetrol]",0.2 kcal/gram
